Data on 94 sequences can be found in the supplement of paper PMC3334620.

In all, about 33,000 sequences were measured (“E-score (-0.5 to 0.5)”: median about -8e-05, highest 2% from about 0.23 on). The list shows a part of the results.

The assay deals with T1, Nrg2 (UniProt P38082).
T1 sequence: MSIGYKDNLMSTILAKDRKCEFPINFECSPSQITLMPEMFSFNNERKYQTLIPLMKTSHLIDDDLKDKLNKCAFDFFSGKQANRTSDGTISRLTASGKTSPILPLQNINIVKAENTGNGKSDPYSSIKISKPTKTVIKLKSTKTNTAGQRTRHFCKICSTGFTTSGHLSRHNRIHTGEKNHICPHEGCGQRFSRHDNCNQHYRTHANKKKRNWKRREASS
Nature of the assay: PBM E-score (8-mer binding enrichment) (E-score (-0.5 to 0.5)); higher = stronger / more preferred TF binding. Conditions: protein concentration: 100 nM; construct: GST-full length. The method in brief:
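For each ungapped eight-base word taken together with its reverse complement, the Universal PBM Analysis Suite assigned an E-score. Binding data came from GST-tagged yeast transcription factors, applied at about 100-200 nM, on universal all-10-mer Agilent arrays made double-stranded by primer extension. Fluorescent anti-GST marked bound protein, and scans were normalised with masliner.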
As for AAAGATGG, the “PBM E-score” value is -0.0587.

In the case of GCGTTCTA, the “PBM E-score” value stood at 0.101.

Take GAGCATGA: the “PBM E-score” value is -0.0488.

For the sequence GAAGTATA, the “PBM E-score” value is 0.187.

On to CCTGCACC, for which the “PBM E-score” value was -0.117.

Regarding CAATCTGA, the “PBM E-score” value amounted to 0.00996.

As to CAGCTCAC, the “PBM E-score” value is -0.161.

Turning to CTTTGTCC, the “PBM E-score” value stood at 0.044.

On to ACCCCGCC, for which the “PBM E-score” value amounted to 0.0999.

In the case of ACCAACAG, the “PBM E-score” value is -0.00807.

Regarding CCCGCCCA, the “PBM E-score” value worked out at 0.0878.

As for AACCTGGT, the “PBM E-score” value was -0.00766.

Turning to ACTAGCCT, the “PBM E-score” value was determined as 0.0986.

On to ACACCCCT, for which the “PBM E-score” value is 0.00269.

On to ACCAGGAA, for which the “PBM E-score” value is 0.0925.

For GCGTACCA, the “PBM E-score” value is -0.106.

Take AGTGGCGC: the “PBM E-score” value stood at 0.0571.

Turning to GGCAGACC, the “PBM E-score” value was -0.373.

For the sequence GAGTCGGC, the “PBM E-score” value is -0.158.

Take AGGGTGTG: the “PBM E-score” value amounted to 0.0336.

For ACCTTCGT, the “PBM E-score” value was -0.0154.

For CTCTTTCA, the “PBM E-score” value is -0.0678.

In the case of CGTCAGAA, the “PBM E-score” value was -0.171.

Regarding CTCCATGC, the “PBM E-score” value is -0.162.

As for CCGATCGG, the “PBM E-score” value came out at 0.138.

Regarding AATCCGCC, the “PBM E-score” value was -0.0362.

In the case of AAATGCTT, the “PBM E-score” value was -0.0953.

Regarding ATCCAGAT, the “PBM E-score” value turned out to be 0.0218.

Consider TCAGCACA, for which the “PBM E-score” value was 0.115.

As for ACGGATGA, the “PBM E-score” value is -0.0184.

Consider CCCCTTCA, for which the “PBM E-score” value is -0.0586.

ACGTTAGT: the “PBM E-score” value is -0.0367.

Regarding GGCTAGGA, the “PBM E-score” value was -0.242.

As to GTTCGGAA, the “PBM E-score” value came out at 0.00713.

As for CTCGCTTC, the “PBM E-score” value is -0.0616.

ACGGTAGC: the “PBM E-score” value was -0.102.

Regarding ACATATGG, the “PBM E-score” value amounted to 0.0141.

For the sequence CTACAACC, the “PBM E-score” value turned out to be 0.0231.

As to GGCGCAGA, the “PBM E-score” value was -0.0307.

Take AACGTCGA: the “PBM E-score” value stood at 0.102.

Turning to CAAACGTG, the “PBM E-score” value amounted to 0.0273.

As to CACAATAG, the “PBM E-score” value is 0.15.

Turning to TAGCATAA, the “PBM E-score” value is 0.00712.

As to GGCCGGAA, the “PBM E-score” value is -0.0874.

For the sequence AAGACGGG, the “PBM E-score” value is -0.0336.

For AGACGGAC, the “PBM E-score” value worked out at 0.0662.

For the sequence GACCGTAA, the “PBM E-score” value was -0.143.

Take CAGCAGTA: the “PBM E-score” value is -0.0779.

Consider GCATTACC, for which the “PBM E-score” value was -0.195.

For the sequence CAGCTCTC, the “PBM E-score” value is -0.272.

For the sequence AAATCTTG, the “PBM E-score” value turned out to be 0.0495.

As for TAGGACTA, the “PBM E-score” value is -0.111.

ATCCCCCA: the “PBM E-score” value is -0.415.

Consider GAACGCCC, for which the “PBM E-score” value was -0.017.

As for GCCTAAGC, the “PBM E-score” value was -0.196.

On to ACTGGAAG, for which the “PBM E-score” value was -0.119.

On to ATGTGATA, for which the “PBM E-score” value was 0.113.

As for AATTACGT, the “PBM E-score” value was -0.148.

Turning to ACGAGCGC, the “PBM E-score” value is -0.141.

AATTTGGC: the “PBM E-score” value was -0.142.

On to ATTCGCCG, for which the “PBM E-score” value turned out to be 0.216.

For the sequence CGACACCA, the “PBM E-score” value is -0.124.

For the sequence CGCGTAAG, the “PBM E-score” value is 0.0252.

Consider GTAGCGAA, for which the “PBM E-score” value was determined as 0.0541.

As to CAATTATC, the “PBM E-score” value was 0.289.

With CAGCGCCA, the “PBM E-score” value is -0.18.

For the sequence TCTTTAAA, the “PBM E-score” value turned out to be 0.107.

For the sequence AGGGTTTA, the “PBM E-score” value amounted to 0.235.

Regarding ATTGAGGG, the “PBM E-score” value turned out to be 0.0646.

As to ATAAGTAT, the “PBM E-score” value is 0.0612.

On to CCGCTCCC, for which the “PBM E-score” value is -0.249.

On to AGACTCAC, for which the “PBM E-score” value is -0.252.

With ATATCTAG, the “PBM E-score” value came out at 0.0771.

CAGGTTAG: the “PBM E-score” value amounted to 0.0599.

Take CTTCGTTA: the “PBM E-score” value is -0.0988.

For AATTGTGC, the “PBM E-score” value is 0.184.

In the case of CGGCCGCC, the “PBM E-score” value is -0.138.

On to CCTATCGA, for which the “PBM E-score” value was 0.0835.

With GAGGCCGA, the “PBM E-score” value is -0.0441.

With CGTCAGGC, the “PBM E-score” value was -0.106.

As to CTCCCACC, the “PBM E-score” value was -0.233.

In the case of CGTGCTCA, the “PBM E-score” value is -0.05.

Take CCACGACG: the “PBM E-score” value was 0.143.

For GATGCCAA, the “PBM E-score” value is -0.173.

For the sequence ACTTTATG, the “PBM E-score” value amounted to 0.0763.

Consider CGTCTAGA, for which the “PBM E-score” value is -0.0818.

As for GCGTACGA, the “PBM E-score” value was found to be 0.0504.

With TAATAGGA, the “PBM E-score” value stood at 0.128.

For the sequence GGCCGGCA, the “PBM E-score” value is 0.0905.

In the case of TGACCACA, the “PBM E-score” value is -0.0754.

Turning to ATTCCAAA, the “PBM E-score” value was -0.0604.

Regarding CGATAGAG, the “PBM E-score” value is -0.044.

For the sequence CGCACTCA, the “PBM E-score” value came out at 0.118.

For the sequence ACTTCTAG, the “PBM E-score” value was -0.275.
